Measured values taken from patent publication US20260166085A1.
Where a chain is given by its changes, count along the chain named. No constants are given. Whether binding was seen depends on the method and setting. Some binding calls cover weakened binding; strength is not graded here.

Chains of the proteins cited; added tags and fusions are not shown. Lines headed by an entry give the natural chain unless they say otherwise; changes in a name come on top.
UniProt P10721: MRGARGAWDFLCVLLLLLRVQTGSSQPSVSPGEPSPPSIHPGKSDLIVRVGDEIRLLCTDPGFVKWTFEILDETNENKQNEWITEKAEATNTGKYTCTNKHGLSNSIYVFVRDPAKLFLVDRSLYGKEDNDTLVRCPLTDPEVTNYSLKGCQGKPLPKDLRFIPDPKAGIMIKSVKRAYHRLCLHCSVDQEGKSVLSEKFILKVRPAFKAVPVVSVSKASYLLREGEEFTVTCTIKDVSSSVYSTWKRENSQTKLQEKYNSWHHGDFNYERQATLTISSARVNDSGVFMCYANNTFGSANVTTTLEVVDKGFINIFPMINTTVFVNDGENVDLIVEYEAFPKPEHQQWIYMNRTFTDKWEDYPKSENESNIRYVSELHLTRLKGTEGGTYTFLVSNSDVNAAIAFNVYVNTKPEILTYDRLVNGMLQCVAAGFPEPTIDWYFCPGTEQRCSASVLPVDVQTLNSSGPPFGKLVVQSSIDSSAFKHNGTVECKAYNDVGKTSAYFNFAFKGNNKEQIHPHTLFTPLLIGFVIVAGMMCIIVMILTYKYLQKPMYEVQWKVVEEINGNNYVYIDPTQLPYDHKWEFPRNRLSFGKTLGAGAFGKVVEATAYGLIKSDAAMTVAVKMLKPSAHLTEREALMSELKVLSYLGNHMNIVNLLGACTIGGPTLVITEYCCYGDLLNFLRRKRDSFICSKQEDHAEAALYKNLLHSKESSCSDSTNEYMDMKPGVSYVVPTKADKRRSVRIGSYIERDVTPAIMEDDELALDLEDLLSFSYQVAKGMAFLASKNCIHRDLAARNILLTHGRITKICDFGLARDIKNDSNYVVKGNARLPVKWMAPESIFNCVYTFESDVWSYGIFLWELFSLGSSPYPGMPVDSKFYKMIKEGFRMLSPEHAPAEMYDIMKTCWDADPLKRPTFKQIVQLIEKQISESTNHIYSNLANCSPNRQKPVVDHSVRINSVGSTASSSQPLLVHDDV

B1: ABTx257 (antibody, human IgG1, kappa, V domains shown)
VH: QVQLVQSGAAVKKPGESLKISCKGSGYRFTSYWIGWVRQMPGKGLEWMGIIYPGDSDTKYSPSFQGQVTISAGKSISTAYLQWSSLKASDTAMYYCARHGRGYDAYDGAFDIWGQGTMVTVSS
VL: AIQLTQSPSSLSASVGDRVTITCRASQGISSALAWYQQKPGKAPKLLIYDASSLESGVPSRFSGSGSGTDFTLTISSLQPEDFATYYCQQTNSYPLTFGGGTKVEIKR
B2: ABTx250 (antibody, human IgG1, kappa, V domains shown)
VH: B1 VH with A105G, D107E
VL: B1 VL with T91F
B3: ABTx274 (antibody, human IgG1, kappa, V domains shown)
VH: B1 VH with A105G, D107E
VL: B1 VL
B4: ABTx255 (antibody, human IgG1, kappa, V domains shown)
VH: B1 VH with A105G, D107E
VL: B1 VL with T91V, N92R
B5: ABTx253 (antibody, human IgG1, kappa, V domains shown)
VH: B1 VH with K59R, A105G, D107E
VL: B1 VL with T91F, N92S
B6: ABTx052-Fab (Fab, V domains shown)
VH: B1 VH with K59R, D104N, A105G, D107E
VL: B1 VL with T91F
B7: ABTx308 (antibody, human IgG1, kappa, L234A L235A, V domains shown)
VH: B1 VH
VL: B1 VL with T91F, N92S
B8: ABTx052 variant VH_N104D (antibody, human IgG1, V domains shown)
VH: B1 VH with K59R, A105G, D107E
VL: B1 VL with T91F
B9: ABTx052 variant VL_S93G (antibody, human IgG1, V domains shown)
VH: B1 VH with K59R, D104N, A105G, D107E
VL: AIQLTQSPSSLSASVGDRVTITCRASQGISSALAWYQQKPGKAPKLLIYDASSLESGVPSRFSGSGSGTDFTLTISSLQPEDFATYYCQQFNGYPLTFGGGTKVEIK
B10: ABTx052 variant VH_G105A (antibody, human IgG1, V domains shown)
VH: B1 VH with K59R, D104N, D107E
VL: B1 VL with T91F
B11: ABTx052 variant VL_F91T (antibody, human IgG1, V domains shown)
VH: B1 VH with K59R, D104N, A105G, D107E
VL: B9 VL with F91T, G93S

Target: Wild type CD117 purified protein (human) (UniProt P10721)
Test: binding kinetics grade, FIGS. 55A-55C

Row | binding | Binder
1 | binds | B1
2 | binds | B2
3 | binds | B3
4 | binds | B4
5 | binds | B5

Target: CC128 variant of CD117 (Y259C + N260D) purified protein (human) (UniProt P10721)
Test: binding kinetics grade, FIGS. 55A-55C

Row | binding | Binder
6 | binds | B1
7 | binds | B2
8 | binds | B3
9 | binds | B4
10 | binds | B5

Target: CC200 variant of CD117 (S261G) purified protein (human) (UniProt P10721)
Test: binding kinetics grade, FIGS. 55A-55C

Row | binding | Binder
11 | binds | B1
12 | binds | B2
13 | binds | B3
14 | binds | B4
15 | binds | B5

Target: Wild type CD117 purified protein (human) (UniProt P10721)
Test: binding kinetics (FIGS. 57A-57L)

Row | binding | Binder
16 | binds | B2
17 | binds | B3
18 | binds | B5

Target: Wild type CD117 purified protein (human) (UniProt P10721)
Test: cryo-EM, ~3.0 Å

Row | binding | Binder
19 | binds | B6

Target: CC128 variant of CD117 (Y259C + N260D) purified protein (human) (UniProt P10721)
Test: BLI, CC128 variant on SA biosensor, 100 nM antibody (FIG. 85)

Row | binding | Binder
20 | binds | B7

Target: Wild type CD117 purified protein (human) (UniProt P10721)
Test: binding kinetics, FIGS. 45A-45K

Row | binding | Binder
21 | binds | B8
22 | binds | B9
23 | binds | B10
24 | binds | B11

Target: CC128 variant of CD117 (Y259C + N260D) purified protein (human) (UniProt P10721)
Test: binding kinetics, FIGS. 45A-45K

Row | binding | Binder
25 | binds | B8
26 | binds | B9
27 | binds | B10
28 | binds | B11

Target: CC200 variant of CD117 (S261G) purified protein (human) (UniProt P10721)
Test: binding kinetics, FIGS. 45A-45K

Row | binding | Binder
29 | binds | B8
30 | binds | B9
31 | binds | B10
32 | binds | B11
